From PubChem BioAssay AID651789 (National Center for Advancing Translational Sciences (NCATS), 2012)
Inconclusive means that the source gave no clear call. Such entries were picked first, then a sample of the others. A potency beside an inconclusive call is a rough fit, not a confirmed value. Activity calls are given as the source filed them. Calls come from the whole dose curve; as a rule, active = well fitted inhibition curve with a large enough effect; inconclusive = small, poorly fitted or top-dose-only effect; inactive = no such curve, though single readings can be large or run the other way.

test: Acumen qHTS Assay for Inhibitors of the mTORC1 Signaling Pathway in WT MEF Cells: Hit Validation; conditions: Acumen imaging; series mostly up to 37.3 µM; note: nearly all actives have a fitted effect of over 60% in size
Method in brief: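 Read-out is immunofluorescent phospho-rpS6 (Ser235/236) normalised to PI-stained cell number, reported as % active cells using a 7.5 nM rapamycin threshold. Cells: WT or Tsc2-/-, p53-/- MEFs, compound-exposed 24 h at 37C; PI count also tracks viability.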
Potency is the fitted concentration of half-maximal effect.

Potency, inconclusive:
COC(=O)c1ccc(NC(=O)c2nc(-c3ccc(Cl)cc3)n3c2CCCCC3)cc1 0.826 µM [inhibitor, full curve], Cc1ccccc1CN1C(=O)C(O)(CC(=O)c2ccccc2)c2cc(Cl)ccc21 (centres undefined) 6.56 µM [inhibitor, partial curve, poor fit], COc1cc(Cl)c(C)cc1NC(c1ccccc1)c1nnc(-c2ccccc2Cl)o1 (centres undefined) 23.3 µM [inhibitor, single point], CCOC(=O)C1CCN(c2cc3c(cc2NC(=O)c2ccccc2Cl)n(C)c(=O)n3C)CC1 5.21 µM [inhibitor, partial curve, poor fit], O=C(c1ccco1)n1nc(-c2ccc(Cl)cc2)nc1NCc1ccccc1 13.1 µM [inhibitor, partial curve], O=C(CSc1cn(CC(=O)N2CCCC2)c2ccccc12)Nc1ccc(Cl)cc1 20.7 µM [inhibitor, single point], O=C(Nc1ccc(Cl)cc1)c1cc(S(=O)(=O)N2CCCc3ccccc32)ccc1F 20.7 µM [inhibitor, single point], O=C(Cn1c(=O)n(Cc2ccc3c(c2)OCO3)c(=O)c2ccc(C(=O)NC3CCCCC3)cc21)Nc1ccccc1F 5.85 µM [inhibitor, partial curve], CCOc1ccc(-c2nc(SCC(=O)c3ccccc3)n[nH]2)cc1 26.1 µM [inhibitor, single point], CCOC(=O)N1CCN(Cc2nc3cc(NC(=O)c4ccc([N+](=O)[O-])cc4)ccc3n2C(C)C)CC1 10.4 µM [inhibitor, partial curve], N#Cc1ccccc1Cn1c(=O)n(CCCC(=O)NCc2ccccc2Cl)c(=O)c2ccccc21 26.1 µM [inhibitor, single point], COc1ccc(Cl)cc1NC(=O)c1c(NCc2cccnc2)sc2c1CCC(C)C2 (centres undefined) 10.4 µM [inhibitor, partial curve, poor fit], N#C/C(=C\c1ccc(-c2ccc(F)cc2F)o1)c1nc2ccccc2[nH]1 0.0185 µM [inhibitor, full curve], COc1ccc(OC)c(C(=O)CC2(O)C(=O)N(Cc3ccccc3C)c3ccccc32)c1 (centres undefined) 5.85 µM [inhibitor, partial curve, poor fit], CCCS(=O)(=O)c1ncc(Cl)c(C(=O)Nc2c(C(=O)Nc3ccccc3)oc3ccccc23)n1 3.29 µM [inhibitor, partial curve, poor fit], Cc1cc(NC(=O)c2ccco2)cc(-c2nc3cc(Cl)ccc3o2)c1O 0.0165 µM [inhibitor, full curve, poor fit], CCN(CC)S(=O)(=O)c1ccc(NC(=O)CCc2c(C)nc3cc(-c4ccc(Cl)cc4)nn3c2C)cc1 18.5 µM [inhibitor, single point], O=C(Cn1cc(S(=O)(=O)Cc2cccc(Cl)c2)c2ccccc21)Nc1ccccc1C(F)(F)F 14.7 µM [inhibitor, partial curve, poor fit], O=C(Nc1cccc(C(F)(F)F)c1)c1cnn(-c2cccc(F)c2)c1C1CCNCC1 26.1 µM [inhibitor, single point], COc1ccc(CNCCC(c2ccc3c(c2)OCO3)c2ccccc2OC)cc1 (centres undefined) 14.7 µM [inhibitor, single point], CCCCOc1ccccc1C1CC(=O)Nc2ccc3ccccc3c21 (centres undefined) 26.1 µM [inhibitor, single point], Cc1ccc(C)c(N2CCN(CCCNC(=O)C3COc4ccccc4C3)CC2)c1 (centres undefined) 26.1 µM [inhibitor, single point], CCOC(=O)N1CCN(Cc2nc3cc(NC(C)=O)ccc3n2C(C)C)CC1 18.5 µM [inhibitor, partial curve]

Potency, active:
FC(F)(F)c1cccc(Nc2c3c(nc4ccc(Cl)cc24)CCC3)c1 16.5 µM, CCc1ccc(NC(=O)Cn2c(=O)n(-c3ccc(OC)cc3)c(=O)c3ccc(C(=O)NCc4ccc(C)cc4)cc32)cc1 10.4 µM, CCN1CCN(C(=O)Cn2ncc3c4ccccc4n(Cc4c(C)cc(C)cc4C)c3c2=O)CC1 5.21 µM, CCNC(=O)c1c(NC(=O)c2nc(S(=O)(=O)CC)ncc2Cl)sc2c1CCCC2 0.585 µM, Fc1ccc(Nc2nc3nonc3nc2Nc2cccc(C(F)(F)F)c2)cc1 5.21 µM, Cc1cccc(Nc2ncc(NC(=O)c3cccc(F)c3)c(Nc3cccc(C)c3)n2)c1 5.85 µM, CC(=O)Nc1cccc(NC(=O)C(=O)NCCc2sc(-c3ccccc3)nc2C)c1 7.36 µM

Potency, inactive:
CCOc1ccccc1NC(=O)CN1C(=O)C(=O)c2ccccc21, Cc1cc(C)c(-c2n[nH]c3c2C(c2ccccc2F)N(Cc2ccco2)C3=O)c(O)c1 (centres undefined), CCOc1ccc(CCNC(=O)CCc2c(C)nc3cc(-c4ccccc4OC)nn3c2C)cc1, Cc1c(C(=O)OC2CCC(C)CC2)[nH]c2c1C(=O)CC(c1ccc(F)cc1)C2 (centres undefined), COc1ccc(N2CC(c3nc(-c4cc(OC)c(OC)c(OC)c4)no3)CC2=O)cc1Cl (centres undefined), CCCCN(CC)CCNC(=O)C1CCN(c2nnc(C)c3c(C)n(-c4ccc(C)cc4)nc23)CC1, Cc1ccc(C)c(N2CCN(CCCNC(=O)c3nnc(Cc4ccc(F)cc4Cl)o3)CC2)c1, NC(=O)c1ccccc1NC(=O)c1ccc(-c2ccc(Br)cc2)o1, COc1ccc(C2=NS(=O)(=O)N(C)C(C(=O)Nc3ccc(OC(F)(F)F)cc3)=C2)cc1
